From article PMC10852281 come the findings set out here.

The chains behind the UniProt entries cited, without tags or fusion partners. Where a name states a change or a piece, a line headed by the entry shows the natural chain unless it says otherwise.
UniProt Q9H3M7: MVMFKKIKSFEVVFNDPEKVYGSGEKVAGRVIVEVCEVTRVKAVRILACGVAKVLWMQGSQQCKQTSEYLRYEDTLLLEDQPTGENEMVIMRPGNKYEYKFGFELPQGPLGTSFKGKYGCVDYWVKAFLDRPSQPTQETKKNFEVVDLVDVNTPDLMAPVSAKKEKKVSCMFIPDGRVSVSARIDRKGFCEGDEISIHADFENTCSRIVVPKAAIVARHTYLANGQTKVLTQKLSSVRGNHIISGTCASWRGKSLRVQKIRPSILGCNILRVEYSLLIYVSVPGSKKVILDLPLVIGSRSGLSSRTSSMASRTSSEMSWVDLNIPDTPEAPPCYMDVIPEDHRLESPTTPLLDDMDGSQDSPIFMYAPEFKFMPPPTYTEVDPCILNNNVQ
UniProt P11166: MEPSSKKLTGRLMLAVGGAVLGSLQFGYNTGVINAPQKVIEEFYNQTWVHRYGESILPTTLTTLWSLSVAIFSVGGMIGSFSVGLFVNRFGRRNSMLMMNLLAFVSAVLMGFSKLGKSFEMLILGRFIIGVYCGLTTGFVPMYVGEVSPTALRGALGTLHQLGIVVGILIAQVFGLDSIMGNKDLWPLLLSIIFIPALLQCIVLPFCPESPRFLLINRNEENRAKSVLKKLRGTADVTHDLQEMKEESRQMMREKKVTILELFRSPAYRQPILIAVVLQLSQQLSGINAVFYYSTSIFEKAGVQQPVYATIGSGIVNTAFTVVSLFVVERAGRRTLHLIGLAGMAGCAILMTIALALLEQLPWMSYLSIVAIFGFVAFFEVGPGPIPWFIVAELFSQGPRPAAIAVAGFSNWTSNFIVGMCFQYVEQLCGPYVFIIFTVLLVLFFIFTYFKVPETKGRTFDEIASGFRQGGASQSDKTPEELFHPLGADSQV

Assay [1] deals with TXNIP LL2A-VN (di-leucine motif replaced with alanine, BiFC fusion) (UniProt Q9H3M7). Kind of assay: split reporter; BiFC; HeLa cells co-expressing VN and VC fusions, green fluorescent signal by confocal microscopy, cells fixed with 4% PFA.
The target of assay [2] is TXNIP ARR-VN (amino-terminal ARR only mutant, BiFC fusion) (UniProt Q9H3M7). Described as above.

These are yes or no findings as the source states them, for the method shown. In cells and extracts the contact can be indirect. Binding can be weak; no strength is given.

Turning to “GLUT1-VC (BiFC fusion) (from UniProt P11166 1-492)”, the binding entry in assay [1] and in assay [2] was “binds” throughout.
